Data as given in PubChem BioAssay AID743121 (NCATS, 2013).
Assay: 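Knock-downs that sensitise breast cancer cells to camptothecin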 (primary screen). Cells: MDA-MB-231 cells, a human breast cancer line. Reagents: single siRNA against human genes, 20 nM siRNA (0.8 pmol per well). Timing: 120 h (drug added 48 h after transfection, read 72 h later). Conditions: camptothecin 20 nM (about EC30) for 72 h; vehicle 0.1% DMSO in parallel plates. Read-out: 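Cell viability by ATP luminescence (CellTiter-Glo) as % of non-targeting siRNA wells, and the log2 ratio of viability without drug over viability with camptothecin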. Direction: log2 vehicle/camptothecin viability: higher = stronger sensitisation to camptothecin; viability with camptothecin and viability without drug: higher = more viable cells. Call rule: 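Each gene scored by redundant siRNA activity (RSA) over its individual siRNA ratios; a gene is called active at p < 0.001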.
In all, the deposit lists about 26,000 reagents; below is a random part of them. 167 of all reagents (0.63%) were called active. 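Calls are per gene from RSA p-values that are not deposited; an individual active-marked siRNA can sensitise only weakly.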 Reagents against one gene are numbered here. Reagent sequences are not shown.

The opening 3 records as a preview:
Gene,siRNA no.,log2 vehicle/camptothecin viability,viability with camptothecin (% of control),viability without drug (% of control),call
SIGLEC5 (sialic acid binding Ig like lectin 5),1,0.185,84.8,96.5,inactive
SIGLEC5 (sialic acid binding Ig like lectin 5),2,-0.0505,78.9,76.2,inactive
SIGLEC5 (sialic acid binding Ig like lectin 5),3,-0.2,92.5,80.5,inactive

Main list, from the first entry:
Gene,siRNA no.,log2 vehicle/camptothecin viability,viability with camptothecin (% of control),viability without drug (% of control),call
SIGLEC5 (sialic acid binding Ig like lectin 5),1,0.185,84.8,96.5,inactive
SIGLEC5 (sialic acid binding Ig like lectin 5),2,-0.0505,78.9,76.2,inactive
SIGLEC5 (sialic acid binding Ig like lectin 5),3,-0.2,92.5,80.5,inactive
SIGLEC5 (sialic acid binding Ig like lectin 5),4,0.322,71.6,89.5,inactive
MYO3B (myosin IIIB),1,-0.321,65.7,52.6,inactive
MYO3B (myosin IIIB),2,-0.223,82.2,70.5,inactive
MYO3B (myosin IIIB),3,-0.364,97.6,75.9,inactive
MYO3B (myosin IIIB),4,-0.326,117,93.3,inactive
TNFSF13B (TNF superfamily member 13b),1,1.13,25.6,56.1,inactive
TNFSF13B (TNF superfamily member 13b),2,-0.105,93.7,87.2,inactive
TNFSF13B (TNF superfamily member 13b),3,0.0423,67.1,69.1,inactive
LRRC4B (leucine rich repeat containing 4B),1,-0.328,10.3,8.22,inactive
LRRC4B (leucine rich repeat containing 4B),2,0.433,43.4,58.5,inactive
LRRC4B (leucine rich repeat containing 4B),3,-0.157,115,103,inactive
LRRC4B (leucine rich repeat containing 4B),4,-0.333,65.9,52.3,inactive
"RLIM (ring finger protein, LIM domain interacting)",1,-0.326,95,75.8,inactive
"RLIM (ring finger protein, LIM domain interacting)",2,-0.058,48.1,46.2,inactive
"RLIM (ring finger protein, LIM domain interacting)",3,-0.51,37.5,26.4,inactive
"RLIM (ring finger protein, LIM domain interacting)",4,0.316,81.4,101,inactive
ZMPSTE24 (zinc metallopeptidase STE24),1,-0.483,58.8,42.1,inactive
ZMPSTE24 (zinc metallopeptidase STE24),2,0.179,80.3,90.9,inactive
ZMPSTE24 (zinc metallopeptidase STE24),3,0.249,57.9,68.8,inactive
ZMPSTE24 (zinc metallopeptidase STE24),4,-0.159,65.1,58.3,inactive
CYP2C8 (cytochrome P450 family 2 subfamily C member 8),1,-0.384,92.9,71.2,inactive
CYP2C8 (cytochrome P450 family 2 subfamily C member 8),2,0.12,97.5,106,inactive
CYP2C8 (cytochrome P450 family 2 subfamily C member 8),3,-0.0888,101,94.8,inactive
CYP2C8 (cytochrome P450 family 2 subfamily C member 8),4,-0.0742,74.5,70.8,inactive
KDSR (3-ketodihydrosphingosine reductase),1,0.141,80.1,88.4,inactive
KDSR (3-ketodihydrosphingosine reductase),2,-0.345,57.2,45,inactive
KDSR (3-ketodihydrosphingosine reductase),3,-0.132,98.7,90.1,inactive
